From the supplement of paper PMC7411640
Counter-ions that a name gives are not always drawn. The list shows a part of the results. This data set is noisy: repeats of one test often differ as much as different tests do.

Tested on: MDA-MB-468
Experiment: phospho-S6 immunofluorescence (DAPI-normalised), per-plate z-score; higher = higher phospho-S6 signal (less pathway suppression)
Conditions: 24 h
Method: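 GPCR-targeted compound library (MedChemExpress HY-L006) tested on MDA-MB-468 PTEN-null TNBC cells in 384-well plates at 0.1, 1 or 10 uM, combined with vehicle, GDC0941 450 nM or lapatinib 1 uM, for 24 h. Phospho-S6 (S240/244) immunofluorescence normalised to DAPI and expressed as a per-plate z-score; values are the mean of biological triplicates.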

[1] = compound 0.1 µM, co-treatment: GDC0941 450 nM
[2] = compound 0.1 µM, co-treatment: lapatinib 1 uM
[3] = compound 0.1 µM, co-treatment: vehicle
[4] = compound 1 µM, co-treatment: GDC0941 450 nM
[5] = compound 1 µM, co-treatment: lapatinib 1 uM
[6] = compound 1 µM, co-treatment: vehicle
[7] = compound 10 µM, co-treatment: GDC0941 450 nM
[8] = compound 10 µM, co-treatment: lapatinib 1 uM
[9] = compound 10 µM, co-treatment: vehicle

| Structure (SMILES) | phospho-S6 immunofluorescence (z-score) [1] | phospho-S6 immunofluorescence (z-score) [2] | phospho-S6 immunofluorescence (z-score) [3] | phospho-S6 immunofluorescence (z-score) [4] | phospho-S6 immunofluorescence (z-score) [5] | phospho-S6 immunofluorescence (z-score) [6] | phospho-S6 immunofluorescence (z-score) [7] | phospho-S6 immunofluorescence (z-score) [8] | phospho-S6 immunofluorescence (z-score) [9] |
| --- | --- | --- | --- | --- | --- | --- | --- | --- | --- |
| CN(C)CCc1c[nH]c2ccc(CS(=O)(=O)N3CCCC3)cc12 [Almotriptan (malate)] | -0.12 | 1.05 | -0.2 | -0.67 | 0.71 | -0.32 | 0.95 | 0.57 | 0.38 |
| CC(=O)OCC(=O)[C@@]12OC(C)(C)O[C@@H]1C[C@H]1[C@@H]3C[C@H](F)C4=CC(=O)C=C[C@]4(C)[C@@]3(F)[C@@H](O)C[C@@]12C [Fluocinonide] | -1 | 0.12 | 0.81 | -1.4 | 0.44 | 0.21 | -0.28 | 0.59 | 0.62 |
| O=C1NCCN1CCN1CCC(c2cn(-c3ccc(F)cc3)c3ccc(Cl)cc23)CC1 [Sertindole] | -0.38 | -0.06 | -0.84 | -0.52 | 1.07 | -0.01 | -4.7 | -6.25 | -4.35 |
| CC(C)COc1ccc(CNC(=O)N(Cc2ccc(F)cc2)C2CCN(C)CC2)cc1 [Pimavanserin tartrate] | -0.96 | -1.1 | -0.74 | 0.48 | -1.5 | 0.35 | -3.99 | -6.18 | -5.03 |
| CC(NCCc1ccc(O)cc1)C(O)c1ccc(O)cc1 (stereo not given) [Ritodrine (hydrochloride)] | -0.25 | 0.64 | 0.55 | -0.13 | 0.72 | 0.18 | -0.01 | 1.26 | 0.06 |
